Three molecules from publication PMC8783019 can be followed below.

Test [1] has as its target T1, Myc-tagged MVK (Arabidopsis thaliana) (UniProt P46086).
T1 sequence: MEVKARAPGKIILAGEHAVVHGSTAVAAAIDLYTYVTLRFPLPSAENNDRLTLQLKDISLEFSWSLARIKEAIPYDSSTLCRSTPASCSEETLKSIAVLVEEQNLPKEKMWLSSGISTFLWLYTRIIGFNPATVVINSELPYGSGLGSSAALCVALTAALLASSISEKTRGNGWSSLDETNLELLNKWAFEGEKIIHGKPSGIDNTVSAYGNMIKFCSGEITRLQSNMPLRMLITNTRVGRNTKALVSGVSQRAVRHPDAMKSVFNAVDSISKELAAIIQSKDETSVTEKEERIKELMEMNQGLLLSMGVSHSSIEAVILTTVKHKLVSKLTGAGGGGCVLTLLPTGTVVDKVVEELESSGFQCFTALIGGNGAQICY
The test is described as follows: co-IP; transient co-expression in N. benthamiana leaves, infiltrated with 200 uM ATP for 30 min or 2 mM MES pH 5.7; lysate in 50 mM Tris-HCl pH 7.5, 250 mM NaCl, 0.5% Triton-X 100; precipitated with anti-Myc and protein A resin at 4 C, blotted with anti-HA and anti-Myc.

The target in test [2] is T2, MKK3 fused to split YFP (BiFC) (Arabidopsis thaliana) (UniProt O80396).
T2 sequence: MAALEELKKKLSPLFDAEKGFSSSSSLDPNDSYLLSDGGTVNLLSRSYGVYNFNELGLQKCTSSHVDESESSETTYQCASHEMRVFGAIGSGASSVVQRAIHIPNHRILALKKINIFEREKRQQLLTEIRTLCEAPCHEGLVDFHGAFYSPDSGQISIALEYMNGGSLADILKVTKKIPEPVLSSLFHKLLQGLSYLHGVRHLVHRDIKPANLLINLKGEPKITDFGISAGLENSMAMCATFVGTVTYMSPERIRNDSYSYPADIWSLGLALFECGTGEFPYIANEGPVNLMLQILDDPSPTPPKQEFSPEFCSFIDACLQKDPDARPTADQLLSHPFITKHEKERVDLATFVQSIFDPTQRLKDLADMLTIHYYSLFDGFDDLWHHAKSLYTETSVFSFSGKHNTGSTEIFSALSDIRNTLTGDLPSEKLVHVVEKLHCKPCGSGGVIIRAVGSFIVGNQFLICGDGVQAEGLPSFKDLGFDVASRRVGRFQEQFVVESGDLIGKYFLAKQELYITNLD
The experiment in a line: split reporter; BiFC with split YFP in Arabidopsis leaf protoplasts, 24 h after PEG-mediated transformation, 23 C, dark; FM4-64 as plasma membrane stain.

Test [3] addresses T3, MVK fused to split YFP (BiFC) (Arabidopsis thaliana) (UniProt P46086).
T3 sequence: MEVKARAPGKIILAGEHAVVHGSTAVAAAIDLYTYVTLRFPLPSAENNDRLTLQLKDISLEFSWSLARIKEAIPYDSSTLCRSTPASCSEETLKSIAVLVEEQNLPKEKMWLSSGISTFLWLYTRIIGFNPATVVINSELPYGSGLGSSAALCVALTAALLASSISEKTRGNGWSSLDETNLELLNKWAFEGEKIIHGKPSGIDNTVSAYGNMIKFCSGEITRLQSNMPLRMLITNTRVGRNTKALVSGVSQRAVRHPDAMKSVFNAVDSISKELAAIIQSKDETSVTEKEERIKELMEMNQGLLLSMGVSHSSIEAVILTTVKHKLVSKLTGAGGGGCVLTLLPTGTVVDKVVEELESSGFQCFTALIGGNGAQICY
Described as above.

Test [4] deals with T4, MKK3^C (MKK3 fused to the C-terminal luciferase fragment) (Arabidopsis thaliana) (UniProt O80396).
T4 sequence: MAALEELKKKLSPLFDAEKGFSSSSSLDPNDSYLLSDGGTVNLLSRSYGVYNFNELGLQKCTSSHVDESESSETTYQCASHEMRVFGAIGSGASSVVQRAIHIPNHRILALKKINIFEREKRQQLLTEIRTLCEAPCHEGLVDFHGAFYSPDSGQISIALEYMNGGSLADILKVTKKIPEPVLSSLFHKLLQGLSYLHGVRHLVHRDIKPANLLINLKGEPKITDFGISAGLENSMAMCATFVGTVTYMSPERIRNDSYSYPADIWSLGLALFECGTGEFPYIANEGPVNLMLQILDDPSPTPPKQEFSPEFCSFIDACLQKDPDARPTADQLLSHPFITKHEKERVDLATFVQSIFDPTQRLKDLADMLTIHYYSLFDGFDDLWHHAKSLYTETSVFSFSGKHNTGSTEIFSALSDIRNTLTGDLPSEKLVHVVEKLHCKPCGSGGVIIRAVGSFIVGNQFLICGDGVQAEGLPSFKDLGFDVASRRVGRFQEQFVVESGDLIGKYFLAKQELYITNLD
The experiment in a line: split reporter; split-luciferase complementation imaging in N. benthamiana leaves, 2 days after Agrobacterium infiltration; with 200 uM ATP or mock (2 mM MES pH 5.7); 1 mM D-luciferin, CCD camera.

Test [5] deals with T5, MVK^C (MVK fused to the C-terminal luciferase fragment) (Arabidopsis thaliana) (UniProt P46086).
T5 sequence: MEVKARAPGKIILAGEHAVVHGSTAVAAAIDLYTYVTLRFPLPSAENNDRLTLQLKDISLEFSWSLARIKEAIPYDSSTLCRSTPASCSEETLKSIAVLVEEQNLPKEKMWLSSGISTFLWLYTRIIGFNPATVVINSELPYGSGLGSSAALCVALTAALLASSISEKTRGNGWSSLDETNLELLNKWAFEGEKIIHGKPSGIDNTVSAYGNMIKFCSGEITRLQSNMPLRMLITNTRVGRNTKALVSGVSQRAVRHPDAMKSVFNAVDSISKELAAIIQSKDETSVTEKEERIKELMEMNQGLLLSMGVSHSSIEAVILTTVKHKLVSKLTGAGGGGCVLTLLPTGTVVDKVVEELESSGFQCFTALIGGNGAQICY
The description is as above.

Results are given in words; binding and its absence hold for the method and conditions named. Binding seen in cells or lysates may run through a third protein. Some binding calls cover weakened binding; strength is not graded here. Sequences can lack the tags named with a protein.

B1: HA-tagged P2K1 (receptor, UniProt Q9LSR8 22-766)
chain: QQETSFVYESFLDRQNLYLDKSAIVLPSGLLQLTNASEHQMGHAFHKKPIEFSSSGPLSFSTHFVCALVPKPGFEGGHGIVFVLSPSMDFTHAESTRYLGIFNASTNGSSSYHVLAVELDTIWNPDFKDIDHNHVGIDVNSPISVAIASASYYSDMKGSNESINLLSGNPIQVWVDYEGTLLNVSVAPLEVQKPTRPLLSHPINLTELFPNRSSLFAGFSAATGTAISDQYILWWSFSIDRGSLQRLDISKLPEVPHPRAPHKKVSTLIILLPVCLAILVLAVLAGLYFRRRRKYSEVSETWEKEFDAHRFSYRSLFKATKGFSKDEFLGKGGFGEVYRGNLPQGREIAVKRVSHNGDEGVKQFVAEVVSMRCLKHRNLVPLFGYCRRKRELLLVSEYMPNGSLDEHLFDDQKPVLSWSQRLVVVKGIASALWYLHTGADQVVLHRDVKASNIMLDAEFHGRLGDFGMARFHEHGGNAATTAAVGTVGYMAPELITMGASTGTDVYAFGVFMLEVTCGRRPVEPQLQVEKRHMIKWVCECWKKDSLLDATDPRLGGKFVAEEVEMVMKLGLLCSNIVPESRPTMEQVVLYLNKNLPLPDFSPYTLGIGTFAPVLVDASSLVVSSASWSLSGPSMSSSSPNHSPYAWQSTDQPWGQTIDTKNSLHIVAEPEKPSPAVKMVTLPAEDPQSNHSSISSQRVQPVKREKRRLHQILVAFPWINKQYFKLGLPKHIVHVSLFFFLQLARL
For the molecule B1, the binding result in test [1] was “binds”.

B2: P2K1 fused to split YFP (BiFC) (receptor, UniProt Q9LSR8 22-766)
chain: QQETSFVYESFLDRQNLYLDKSAIVLPSGLLQLTNASEHQMGHAFHKKPIEFSSSGPLSFSTHFVCALVPKPGFEGGHGIVFVLSPSMDFTHAESTRYLGIFNASTNGSSSYHVLAVELDTIWNPDFKDIDHNHVGIDVNSPISVAIASASYYSDMKGSNESINLLSGNPIQVWVDYEGTLLNVSVAPLEVQKPTRPLLSHPINLTELFPNRSSLFAGFSAATGTAISDQYILWWSFSIDRGSLQRLDISKLPEVPHPRAPHKKVSTLIILLPVCLAILVLAVLAGLYFRRRRKYSEVSETWEKEFDAHRFSYRSLFKATKGFSKDEFLGKGGFGEVYRGNLPQGREIAVKRVSHNGDEGVKQFVAEVVSMRCLKHRNLVPLFGYCRRKRELLLVSEYMPNGSLDEHLFDDQKPVLSWSQRLVVVKGIASALWYLHTGADQVVLHRDVKASNIMLDAEFHGRLGDFGMARFHEHGGNAATTAAVGTVGYMAPELITMGASTGTDVYAFGVFMLEVTCGRRPVEPQLQVEKRHMIKWVCECWKKDSLLDATDPRLGGKFVAEEVEMVMKLGLLCSNIVPESRPTMEQVVLYLNKNLPLPDFSPYTLGIGTFAPVLVDASSLVVSSASWSLSGPSMSSSSPNHSPYAWQSTDQPWGQTIDTKNSLHIVAEPEKPSPAVKMVTLPAEDPQSNHSSISSQRVQPVKREKRRLHQILVAFPWINKQYFKLGLPKHIVHVSLFFFLQLARL
As for B2, the results for the binding entry in test [2] and in test [3] were “no binding” and “binds”, respectively.

B3: P2K1^N (P2K1 fused to the N-terminal luciferase fragment) (receptor, UniProt Q9LSR8 22-766)
chain: QQETSFVYESFLDRQNLYLDKSAIVLPSGLLQLTNASEHQMGHAFHKKPIEFSSSGPLSFSTHFVCALVPKPGFEGGHGIVFVLSPSMDFTHAESTRYLGIFNASTNGSSSYHVLAVELDTIWNPDFKDIDHNHVGIDVNSPISVAIASASYYSDMKGSNESINLLSGNPIQVWVDYEGTLLNVSVAPLEVQKPTRPLLSHPINLTELFPNRSSLFAGFSAATGTAISDQYILWWSFSIDRGSLQRLDISKLPEVPHPRAPHKKVSTLIILLPVCLAILVLAVLAGLYFRRRRKYSEVSETWEKEFDAHRFSYRSLFKATKGFSKDEFLGKGGFGEVYRGNLPQGREIAVKRVSHNGDEGVKQFVAEVVSMRCLKHRNLVPLFGYCRRKRELLLVSEYMPNGSLDEHLFDDQKPVLSWSQRLVVVKGIASALWYLHTGADQVVLHRDVKASNIMLDAEFHGRLGDFGMARFHEHGGNAATTAAVGTVGYMAPELITMGASTGTDVYAFGVFMLEVTCGRRPVEPQLQVEKRHMIKWVCECWKKDSLLDATDPRLGGKFVAEEVEMVMKLGLLCSNIVPESRPTMEQVVLYLNKNLPLPDFSPYTLGIGTFAPVLVDASSLVVSSASWSLSGPSMSSSSPNHSPYAWQSTDQPWGQTIDTKNSLHIVAEPEKPSPAVKMVTLPAEDPQSNHSSISSQRVQPVKREKRRLHQILVAFPWINKQYFKLGLPKHIVHVSLFFFLQLARL
For the molecule B3, the results for the binding result in test [4] and in test [5] were “no binding” and “binds”, respectively.
